PubChem BioAssay AID1224828 | NIAID, 2016
Shown is an unselected part of about 17,000 reagents tested. Of all reagents, 762 (4.5%) are marked active. 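Active calls include both raised and lowered p65 entry, mostly lowered; wells with fewer than 50 cells lack a z-score.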 The raw values are shown without normalisation. The numbers tell different reagents against one gene apart. No sequences are given here.

Assay: 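Find genes required for NF-kappaB p65 moving into the nucleus after LPS in mouse macrophages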 (primary screen)
System: mouse RAW264.7 G9 macrophage reporter cells (GFP-p65, Tnf promoter-mCherry)
Reagents: siRNA pool against mouse genes, 100 nM
Time to read-out: 2 days siRNA transfection, then 40 min LPS before fixation
Challenge: LPS (Salmonella minnesota R595) at 10 ng/ml
Measurement: 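Microscopy ratio of nuclear to perinuclear-ring GFP-p65 signal, scaled to the plate median; gene score is the average of two replicate robust z-scores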
Reading the numbers: p65 translocation robust z-score: higher = more nuclear NF-kappaB p65 after LPS than the plate median; nuclear/cytoplasmic p65 ratio: higher = more nuclear NF-kappaB p65
Rule for the call: 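Called active when z exceeds 3.3 or falls under -1.56 (median of Tlr4 controls), giving activity score of at least 50; no calls for control wells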
Calls: active = hit (p65 shift raised or lowered); inactive = no clear change

gene | reagent no. | p65 translocation robust z-score | nuclear/cytoplasmic p65 ratio, rep 1 | nuclear/cytoplasmic p65 ratio, rep 2 | low cell count flag | Outcome
Serpina5 (GeneID 268591) | 1 | 0.39 | 1.6 | 1.62 | enough cells to score | inactive
Arhgef40 (GeneID 268739) | 1 | -1.17 | 1.26 | 1.26 | enough cells to score | inactive
Agrn (GeneID 11603) | 1 | -0.85 | 1.44 | 1.59 | enough cells to score | inactive
Uqcc2 (GeneID 67267) | 1 | – | 1.04 | 1.14 | fewer than 50 cells per well; well left out of scoring | inactive
Herc2 (GeneID 15204) | 1 | 1.18 | 1.5 | 1.62 | enough cells to score | inactive
Bst1 (GeneID 12182) | 1 | – | 1.14 | 1.2 | fewer than 50 cells per well; well left out of scoring | inactive
Stra8 (GeneID 20899) | 1 | -1.78 | 1.12 | 1.03 | enough cells to score | active
Brca2 (GeneID 12190) | 1 | -0.18 | 1.63 | 1.54 | enough cells to score | inactive
Tas2r108 (GeneID 57253) | 1 | -1.7 | 1.23 | 1.38 | enough cells to score | active
Ebpl (GeneID 68177) | 1 | 0.49 | 1.53 | 1.35 | enough cells to score | inactive
Zfp276 (GeneID 57247) | 1 | -0.75 | 1.28 | 1.19 | enough cells to score | inactive
Bmp7 (GeneID 12162) | 1 | 0.22 | 1.66 | 1.63 | enough cells to score | inactive
Star (GeneID 20845) | 1 | 0.98 | 1.64 | 1.74 | enough cells to score | inactive
Prkag3 (GeneID 241113) | 1 | -0.78 | 1.66 | 1.28 | enough cells to score | inactive
Medag (GeneID 70717) | 1 | 1.06 | 1.47 | 1.63 | enough cells to score | inactive
Tspan14 (GeneID 52588) | 1 | -1.38 | 1.35 | 1.58 | enough cells to score | inactive
Slc16a10 (GeneID 72472) | 1 | -1.48 | 1.16 | 1.13 | enough cells to score | inactive
Tpmt (GeneID 22017) | 1 | 1.3 | 1.58 | 1.79 | enough cells to score | inactive
Gstm6 (GeneID 14867) | 1 | 0.48 | 1.73 | 1.6 | enough cells to score | inactive
Samm50 (GeneID 68653) | 1 | -1.45 | 1.3 | 1.35 | enough cells to score | inactive
Arf6 (GeneID 11845) | 1 | 0.5 | 1.72 | 1.67 | enough cells to score | inactive
Zfp358 (GeneID 140482) | 1 | 1.83 | 1.68 | 1.44 | enough cells to score | inactive
Vmn1r231 (GeneID 171230) | 1 | -2.2 | 1.09 | 0.99 | enough cells to score | active
Map3k19 (GeneID 22625) | 1 | 1.11 | 1.67 | 1.51 | enough cells to score | inactive
Or8c9 (GeneID 18323) | 1 | – | 1.72 | 1.72 | fewer than 50 cells per well; well left out of scoring | inactive
Tmco1 (GeneID 68944) | 1 | 1.25 | 1.49 | 1.58 | enough cells to score | inactive
Srsf11 (GeneID 69207) | 1 | 2.71 | 1.88 | 2.16 | enough cells to score | inactive
Cd55b (GeneID 13137) | 1 | 0.67 | 1.68 | 1.63 | enough cells to score | inactive
Cchcr1 (GeneID 240084) | 1 | 0.56 | 1.57 | 1.77 | enough cells to score | inactive
Vps33b (GeneID 233405) | 1 | 0.99 | 1.54 | 1.32 | enough cells to score | inactive
Sec23b (GeneID 27054) | 1 | 1.58 | 1.65 | 1.4 | enough cells to score | inactive
Rxra (GeneID 20181) | 1 | -1.17 | 1.37 | 1.34 | enough cells to score | inactive
Wdcp (GeneID 238037) | 1 | -0.3 | 1.47 | 1.4 | enough cells to score | inactive
Vmn1r220 (GeneID 171271) | 1 | 0.54 | 1.48 | 1.27 | enough cells to score | inactive
Susd6 (GeneID 217684) | 1 | 0.07 | 1.4 | 1.47 | enough cells to score | inactive
Slc16a4 (GeneID 229699) | 1 | 1.62 | 1.65 | 1.41 | enough cells to score | inactive
Commd2 (GeneID 52245) | 1 | 1 | 1.72 | 1.96 | enough cells to score | inactive
Atp6v1c2 (GeneID 68775) | 1 | -0.44 | 1.45 | 1.54 | enough cells to score | inactive
Mmp7 (GeneID 17393) | 1 | -0.27 | 1.43 | 1.29 | enough cells to score | inactive
Pfkl (GeneID 18641) | 1 | 0.75 | 1.73 | 1.53 | enough cells to score | inactive
Col3a1 (GeneID 12825) | 1 | 0.3 | 1.53 | 1.4 | enough cells to score | inactive
Rpap1 (GeneID 68925) | 1 | 0.25 | 1.38 | 1.25 | enough cells to score | inactive
Hars2 (GeneID 70791) | 1 | 0.57 | 1.67 | 1.68 | enough cells to score | inactive
Tom1l2 (GeneID 216810) | 1 | -0.71 | 1.28 | 1.44 | enough cells to score | inactive
Ankrd13d (GeneID 68423) | 1 | – | 1.43 | 1.1 | fewer than 50 cells per well; well left out of scoring | inactive
Irf2 (GeneID 16363) | 1 | -1.25 | 1.24 | 1.28 | enough cells to score | inactive
Tmem63b (GeneID 224807) | 1 | 0.94 | 1.7 | 2.03 | enough cells to score | inactive
Epha6 (GeneID 13840) | 1 | -0.49 | 1.54 | 1.38 | enough cells to score | inactive
Il1rn (GeneID 16181) | 1 | -0.68 | 1.33 | 1.34 | enough cells to score | inactive
Il17rd (GeneID 171463) | 1 | – | 1.47 | 1.65 | fewer than 50 cells per well; well left out of scoring | inactive
Il17rd (GeneID 171463) | 2 | – | 1.28 | 1.34 | fewer than 50 cells per well; well left out of scoring | inactive
Rps28 (GeneID 54127) | 1 | 1.1 | 1.57 | 1.28 | enough cells to score | inactive
Fgf1 (GeneID 14164) | 1 | 0.82 | 1.6 | 1.42 | enough cells to score | inactive
Fut2 (GeneID 14344) | 1 | -0.99 | 1.25 | 1.3 | enough cells to score | inactive
Tlcd4 (GeneID 99887) | 1 | -0.64 | 1.52 | 1.65 | enough cells to score | inactive
Mapk7 (GeneID 23939) | 1 | 1.97 | 1.92 | 1.62 | enough cells to score | inactive
Tef (GeneID 21685) | 1 | 0.9 | 1.65 | 1.64 | enough cells to score | inactive
Cdc42ep2 (GeneID 104252) | 1 | -0.85 | 1.42 | 1.7 | enough cells to score | inactive
Lyrm1 (GeneID 73919) | 1 | – | 1.25 | 1.21 | fewer than 50 cells per well; well left out of scoring | inactive

Sorted by “nuclear/cytoplasmic p65 ratio, rep 1” (high to low): 9 of the entries above.
gene | reagent no. | p65 translocation robust z-score | nuclear/cytoplasmic p65 ratio, rep 1 | nuclear/cytoplasmic p65 ratio, rep 2 | low cell count flag | Outcome
Tmem63b (GeneID 224807) | 1 | 0.94 | 1.7 | 2.03 | enough cells to score | inactive
Rps28 (GeneID 54127) | 1 | 1.1 | 1.57 | 1.28 | enough cells to score | inactive
Epha6 (GeneID 13840) | 1 | -0.49 | 1.54 | 1.38 | enough cells to score | inactive
Il17rd (GeneID 171463) | 1 | – | 1.47 | 1.65 | fewer than 50 cells per well; well left out of scoring | inactive
Ankrd13d (GeneID 68423) | 1 | – | 1.43 | 1.1 | fewer than 50 cells per well; well left out of scoring | inactive
Il1rn (GeneID 16181) | 1 | -0.68 | 1.33 | 1.34 | enough cells to score | inactive
Tom1l2 (GeneID 216810) | 1 | -0.71 | 1.28 | 1.44 | enough cells to score | inactive
Il17rd (GeneID 171463) | 2 | – | 1.28 | 1.34 | fewer than 50 cells per well; well left out of scoring | inactive
Irf2 (GeneID 16363) | 1 | -1.25 | 1.24 | 1.28 | enough cells to score | inactive
